Assay results published in paper PMC7948964.
Read-outs that look alike come from different tables or passages of the source. These are yes or no findings as the source states them, for the method shown. In cells and extracts the contact can be indirect. A yes stands for co-enrichment or nearness to the bait. Other partners may have been found. For part of these data: A no says only that the protein was not detected with the bait. Sequences can lack the tags named with a protein.

Amino acid sequences for entries named in this document (tags omitted).
UniProt Q8WZ74: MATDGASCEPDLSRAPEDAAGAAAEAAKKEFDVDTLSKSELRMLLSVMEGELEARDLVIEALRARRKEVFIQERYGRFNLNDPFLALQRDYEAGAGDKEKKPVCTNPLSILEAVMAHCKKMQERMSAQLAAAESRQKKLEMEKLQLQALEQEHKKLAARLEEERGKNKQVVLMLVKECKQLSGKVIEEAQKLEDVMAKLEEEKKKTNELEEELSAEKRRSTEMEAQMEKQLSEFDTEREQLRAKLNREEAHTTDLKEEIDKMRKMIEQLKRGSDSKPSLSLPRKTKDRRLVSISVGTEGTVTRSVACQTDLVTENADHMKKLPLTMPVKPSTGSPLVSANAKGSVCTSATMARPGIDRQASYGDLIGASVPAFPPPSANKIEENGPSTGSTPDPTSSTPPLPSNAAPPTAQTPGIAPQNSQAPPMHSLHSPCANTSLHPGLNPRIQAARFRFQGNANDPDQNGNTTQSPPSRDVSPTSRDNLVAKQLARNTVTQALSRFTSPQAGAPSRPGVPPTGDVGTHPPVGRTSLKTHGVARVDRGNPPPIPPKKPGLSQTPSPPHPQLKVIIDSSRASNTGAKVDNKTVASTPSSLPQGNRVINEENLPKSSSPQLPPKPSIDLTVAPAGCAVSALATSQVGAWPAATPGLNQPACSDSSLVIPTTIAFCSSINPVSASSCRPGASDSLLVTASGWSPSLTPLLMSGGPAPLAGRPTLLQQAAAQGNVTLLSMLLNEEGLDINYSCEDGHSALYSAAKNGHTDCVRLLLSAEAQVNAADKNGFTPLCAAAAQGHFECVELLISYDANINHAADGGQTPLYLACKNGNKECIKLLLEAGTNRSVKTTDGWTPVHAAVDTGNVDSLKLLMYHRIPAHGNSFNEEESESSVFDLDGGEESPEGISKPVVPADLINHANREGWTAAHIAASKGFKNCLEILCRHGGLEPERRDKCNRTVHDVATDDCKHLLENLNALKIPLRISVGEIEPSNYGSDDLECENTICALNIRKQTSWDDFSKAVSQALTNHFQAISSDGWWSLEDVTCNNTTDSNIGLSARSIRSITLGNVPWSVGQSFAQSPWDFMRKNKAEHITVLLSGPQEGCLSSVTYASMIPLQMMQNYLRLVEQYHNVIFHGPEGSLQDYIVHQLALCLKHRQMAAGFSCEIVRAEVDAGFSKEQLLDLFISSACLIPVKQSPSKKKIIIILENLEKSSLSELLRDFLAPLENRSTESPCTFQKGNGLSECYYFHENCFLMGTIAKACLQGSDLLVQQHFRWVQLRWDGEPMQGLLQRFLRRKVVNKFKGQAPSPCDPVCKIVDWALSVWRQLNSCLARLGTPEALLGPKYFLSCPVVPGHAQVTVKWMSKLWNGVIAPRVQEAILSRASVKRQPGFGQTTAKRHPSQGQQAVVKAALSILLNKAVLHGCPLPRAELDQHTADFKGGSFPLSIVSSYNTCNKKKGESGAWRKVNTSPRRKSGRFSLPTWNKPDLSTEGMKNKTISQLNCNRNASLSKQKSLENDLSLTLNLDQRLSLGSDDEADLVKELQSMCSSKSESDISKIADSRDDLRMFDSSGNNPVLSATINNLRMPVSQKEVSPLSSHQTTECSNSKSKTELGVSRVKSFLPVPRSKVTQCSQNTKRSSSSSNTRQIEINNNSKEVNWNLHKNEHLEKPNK
UniProt Q5VSL9: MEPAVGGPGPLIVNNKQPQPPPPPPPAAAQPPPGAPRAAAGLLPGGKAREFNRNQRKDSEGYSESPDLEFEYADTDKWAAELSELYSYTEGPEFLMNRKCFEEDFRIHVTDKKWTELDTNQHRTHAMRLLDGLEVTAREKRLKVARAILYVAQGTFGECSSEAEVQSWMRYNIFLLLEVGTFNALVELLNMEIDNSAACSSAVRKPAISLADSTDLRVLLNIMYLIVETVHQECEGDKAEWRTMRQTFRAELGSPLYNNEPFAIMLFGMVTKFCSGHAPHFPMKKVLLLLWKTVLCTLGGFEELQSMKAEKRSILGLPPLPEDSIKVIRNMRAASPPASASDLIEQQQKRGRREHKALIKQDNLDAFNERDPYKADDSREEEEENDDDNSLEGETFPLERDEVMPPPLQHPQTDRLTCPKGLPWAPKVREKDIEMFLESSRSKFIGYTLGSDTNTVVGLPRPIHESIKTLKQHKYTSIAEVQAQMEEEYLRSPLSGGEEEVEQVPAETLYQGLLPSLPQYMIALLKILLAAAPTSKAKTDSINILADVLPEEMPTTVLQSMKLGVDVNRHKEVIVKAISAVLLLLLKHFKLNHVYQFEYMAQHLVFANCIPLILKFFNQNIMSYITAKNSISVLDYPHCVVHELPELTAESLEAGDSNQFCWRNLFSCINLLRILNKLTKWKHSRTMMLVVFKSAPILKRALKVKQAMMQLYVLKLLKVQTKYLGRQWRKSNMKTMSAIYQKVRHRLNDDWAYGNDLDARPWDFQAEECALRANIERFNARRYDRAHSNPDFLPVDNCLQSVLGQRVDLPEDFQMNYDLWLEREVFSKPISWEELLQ
UniProt Q9ULQ0: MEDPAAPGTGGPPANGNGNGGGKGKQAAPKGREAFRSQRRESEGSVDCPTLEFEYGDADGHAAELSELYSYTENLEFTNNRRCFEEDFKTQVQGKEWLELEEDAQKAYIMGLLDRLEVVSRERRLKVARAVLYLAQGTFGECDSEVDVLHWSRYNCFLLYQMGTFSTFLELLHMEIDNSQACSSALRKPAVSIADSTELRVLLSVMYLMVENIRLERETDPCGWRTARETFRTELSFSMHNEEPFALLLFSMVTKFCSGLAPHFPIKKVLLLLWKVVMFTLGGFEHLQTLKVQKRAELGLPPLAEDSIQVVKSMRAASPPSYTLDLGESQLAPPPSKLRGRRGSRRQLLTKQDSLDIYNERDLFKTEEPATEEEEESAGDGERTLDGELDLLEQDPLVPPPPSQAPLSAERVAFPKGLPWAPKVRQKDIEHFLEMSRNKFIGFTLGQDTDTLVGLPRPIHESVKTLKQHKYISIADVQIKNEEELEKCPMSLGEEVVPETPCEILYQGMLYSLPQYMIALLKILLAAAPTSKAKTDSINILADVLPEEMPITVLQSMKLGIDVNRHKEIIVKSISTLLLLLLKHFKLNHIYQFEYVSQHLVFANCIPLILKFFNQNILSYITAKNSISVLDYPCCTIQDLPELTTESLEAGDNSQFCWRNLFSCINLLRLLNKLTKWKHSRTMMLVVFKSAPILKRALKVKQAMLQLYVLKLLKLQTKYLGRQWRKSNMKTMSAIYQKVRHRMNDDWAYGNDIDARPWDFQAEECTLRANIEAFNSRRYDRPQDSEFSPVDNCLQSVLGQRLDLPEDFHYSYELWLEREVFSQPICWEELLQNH
UniProt P46934: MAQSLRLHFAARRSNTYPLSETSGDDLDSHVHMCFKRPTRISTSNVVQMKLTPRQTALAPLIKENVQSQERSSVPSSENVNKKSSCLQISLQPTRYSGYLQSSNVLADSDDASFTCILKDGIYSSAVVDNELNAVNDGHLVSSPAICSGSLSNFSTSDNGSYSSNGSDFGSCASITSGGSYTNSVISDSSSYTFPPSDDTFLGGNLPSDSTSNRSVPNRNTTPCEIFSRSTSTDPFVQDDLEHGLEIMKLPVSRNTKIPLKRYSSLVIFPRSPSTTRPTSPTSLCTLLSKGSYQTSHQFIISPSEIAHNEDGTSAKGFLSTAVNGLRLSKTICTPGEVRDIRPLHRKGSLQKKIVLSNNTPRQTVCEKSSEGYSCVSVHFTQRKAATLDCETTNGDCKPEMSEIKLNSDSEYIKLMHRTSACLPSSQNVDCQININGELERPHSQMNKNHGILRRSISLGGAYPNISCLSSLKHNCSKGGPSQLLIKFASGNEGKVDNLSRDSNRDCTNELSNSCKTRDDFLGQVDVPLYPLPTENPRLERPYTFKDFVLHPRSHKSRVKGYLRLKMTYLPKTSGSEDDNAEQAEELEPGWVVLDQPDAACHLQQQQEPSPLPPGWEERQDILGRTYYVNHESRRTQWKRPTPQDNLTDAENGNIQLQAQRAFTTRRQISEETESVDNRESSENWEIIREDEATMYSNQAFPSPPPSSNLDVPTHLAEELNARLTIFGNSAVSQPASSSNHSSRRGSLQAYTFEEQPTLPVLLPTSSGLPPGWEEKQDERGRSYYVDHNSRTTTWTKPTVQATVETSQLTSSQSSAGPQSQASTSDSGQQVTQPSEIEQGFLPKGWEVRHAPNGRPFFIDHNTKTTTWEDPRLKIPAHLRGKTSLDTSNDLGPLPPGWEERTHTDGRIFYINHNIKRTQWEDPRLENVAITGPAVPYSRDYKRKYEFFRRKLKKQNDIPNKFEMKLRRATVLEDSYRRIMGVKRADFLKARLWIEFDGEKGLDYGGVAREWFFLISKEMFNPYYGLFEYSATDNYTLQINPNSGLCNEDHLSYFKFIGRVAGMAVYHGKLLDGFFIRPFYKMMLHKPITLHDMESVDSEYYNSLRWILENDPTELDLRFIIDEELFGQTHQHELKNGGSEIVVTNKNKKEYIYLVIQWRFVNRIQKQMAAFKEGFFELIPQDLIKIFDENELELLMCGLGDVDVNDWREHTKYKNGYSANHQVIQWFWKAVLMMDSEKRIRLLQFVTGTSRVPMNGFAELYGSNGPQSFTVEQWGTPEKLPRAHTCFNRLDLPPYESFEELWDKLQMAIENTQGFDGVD
UniProt Q15386: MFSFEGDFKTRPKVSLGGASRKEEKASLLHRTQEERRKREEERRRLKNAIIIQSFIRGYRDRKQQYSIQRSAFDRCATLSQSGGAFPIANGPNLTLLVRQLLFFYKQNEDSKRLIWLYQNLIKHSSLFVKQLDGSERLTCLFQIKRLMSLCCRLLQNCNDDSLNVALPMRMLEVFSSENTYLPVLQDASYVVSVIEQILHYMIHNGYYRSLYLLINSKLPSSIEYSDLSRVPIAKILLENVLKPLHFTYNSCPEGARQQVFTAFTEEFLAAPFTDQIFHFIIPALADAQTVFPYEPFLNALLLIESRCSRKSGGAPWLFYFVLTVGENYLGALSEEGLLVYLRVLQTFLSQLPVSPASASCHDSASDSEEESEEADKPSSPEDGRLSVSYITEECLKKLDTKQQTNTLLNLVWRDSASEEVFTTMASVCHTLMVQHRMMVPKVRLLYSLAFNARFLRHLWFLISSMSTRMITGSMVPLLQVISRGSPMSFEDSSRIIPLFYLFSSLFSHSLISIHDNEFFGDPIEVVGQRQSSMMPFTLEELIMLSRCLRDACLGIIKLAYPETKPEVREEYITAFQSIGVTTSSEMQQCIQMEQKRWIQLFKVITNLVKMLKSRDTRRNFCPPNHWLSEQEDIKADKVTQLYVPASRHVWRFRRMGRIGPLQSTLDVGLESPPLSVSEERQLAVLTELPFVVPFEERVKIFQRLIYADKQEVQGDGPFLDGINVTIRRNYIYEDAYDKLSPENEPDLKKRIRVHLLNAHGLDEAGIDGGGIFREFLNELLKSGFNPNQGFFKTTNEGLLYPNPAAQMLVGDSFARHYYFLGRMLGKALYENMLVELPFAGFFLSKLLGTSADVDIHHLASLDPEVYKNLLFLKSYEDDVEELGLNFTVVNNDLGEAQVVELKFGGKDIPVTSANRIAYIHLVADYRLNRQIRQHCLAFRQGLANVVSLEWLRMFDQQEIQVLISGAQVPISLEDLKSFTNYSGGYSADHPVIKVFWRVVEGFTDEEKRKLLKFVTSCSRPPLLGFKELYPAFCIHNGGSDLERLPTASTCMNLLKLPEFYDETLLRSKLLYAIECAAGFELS

T1: 3xFLAG_TRABID ΔOTU (TRABID 1-339) (human) (UniProt Q9UGI0)
T1 sequence: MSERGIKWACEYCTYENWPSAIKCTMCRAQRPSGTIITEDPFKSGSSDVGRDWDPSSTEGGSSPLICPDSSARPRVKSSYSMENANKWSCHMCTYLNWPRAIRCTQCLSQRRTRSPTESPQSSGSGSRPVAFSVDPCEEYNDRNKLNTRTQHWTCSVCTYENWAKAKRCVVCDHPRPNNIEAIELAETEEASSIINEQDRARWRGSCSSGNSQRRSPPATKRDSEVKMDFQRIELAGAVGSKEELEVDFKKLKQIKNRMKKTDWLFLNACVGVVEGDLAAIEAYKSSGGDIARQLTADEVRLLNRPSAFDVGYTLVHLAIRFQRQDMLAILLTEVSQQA

T2: 3xFLAG_full-length-TRABID^C443S (human) (UniProt Q9UGI0)
T2 sequence: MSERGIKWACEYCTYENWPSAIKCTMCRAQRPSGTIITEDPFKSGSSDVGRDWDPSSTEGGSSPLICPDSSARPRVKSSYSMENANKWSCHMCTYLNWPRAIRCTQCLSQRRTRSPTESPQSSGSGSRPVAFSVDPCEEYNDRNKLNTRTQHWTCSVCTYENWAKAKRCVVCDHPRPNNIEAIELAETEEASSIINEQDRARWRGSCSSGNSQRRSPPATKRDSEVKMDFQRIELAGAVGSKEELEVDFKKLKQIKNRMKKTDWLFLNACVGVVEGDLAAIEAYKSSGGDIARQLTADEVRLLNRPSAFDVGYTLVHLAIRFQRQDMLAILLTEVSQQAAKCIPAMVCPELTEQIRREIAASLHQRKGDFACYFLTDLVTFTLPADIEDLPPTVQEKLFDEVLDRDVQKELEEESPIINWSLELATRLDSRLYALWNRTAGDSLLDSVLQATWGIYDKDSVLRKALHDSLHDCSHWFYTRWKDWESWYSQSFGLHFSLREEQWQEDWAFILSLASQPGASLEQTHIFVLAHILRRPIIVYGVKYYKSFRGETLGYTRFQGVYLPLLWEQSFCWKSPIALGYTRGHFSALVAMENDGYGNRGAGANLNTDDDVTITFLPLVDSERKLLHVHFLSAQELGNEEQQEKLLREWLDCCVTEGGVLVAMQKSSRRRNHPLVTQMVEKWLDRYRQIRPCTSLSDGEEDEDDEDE

B1: Striatin 3 (protein, UniProt Q13033 1-797)
chain: MDELAGGGGGGPGMAAPPRQQQGPGGNLGLSPGGNGAAGGGGPPASEGAGPAAGPELSRPQQYTIPGILHYIQHEWARFEMERAHWEVERAELQARIAFLQGERKGQENLKKDLVRRIKMLEYALKQERAKYHKLKYGTELNQGDLKMPTFESEETKDTEAPTAPQNSQLTWKQGRQLLRQYLQEVGYTDTILDVRSQRVRSLLGLSNSEPNGSVETKNLEQILNGGESPKQKGQEIKRSSGDVLETFNFLENADDSDEDEENDMIEGIPEGKDKHRMNKHKIGNEGLAADLTDDPDTEEALKEFDFLVTAEDGEGAGEARSSGDGTEWDKDDLSPTAEVWDVDQGLISKLKEQYKKERKGKKGVKRANRTKLYDMIADLGDDELPHIPSGIINQSRSASTRMTDHEGARAEEAEPITFPSGGGKSFIMGSDDVLLSVLGLGDLADLTVTNDADYSYDLPANKDAFRKTWNPKYTLRSHFDGVRALAFHPVEPVLVTASEDHTLKLWNLQKTVPAKKSASLDVEPIYTFRAHIGPVLSLAISSNGEQCFSGGIDATIQWWNMPSPSVDPYDTYEPNVLAGTLVGHTDAVWGLAYSGIKNQLLSCSADGTVRLWNPQEKLPCICTYNGDKKHGIPTSVDFIGCDPAHMVTSFNTGSAVIYDLETSQSLVILSSQVDSGLQSNNHINRVVSHPTLPVTITAHEDRHIKFFDNKTGKMIHSMVAHLDAVTSLAVDPNGIYLMSGSHDCSIRLWNLDSKTCVQEITAHRKKLDESIYDVAFHSSKAYIASAGADALAKVFV
B2: CTTNBP2L (protein, UniProt Q9P2B4 1-639)
chain: MNLEKLSKPELLTLFSILEGELEARDLVIEALKAQHRDTFIEERYGKYNISDPLMALQRDFETLKEKNDGEKQPVCTNPLSILKVVMKQCKNMQERMLSQLAAAESRHRKVILDLEEERQRHAQDTAEGDDVTYMLEKERERLTQQLEFEKSQVKKFEKEQKKLSSQLEEERSRHKQLSSMLVLECKKATNKAAEEGQKAGELSLKLEKEKSRVSKLEEELAAERKRGLQTEAQVEKQLSEFDIEREQLRAKLNREENRTKTLKEEMESLKKIVKDLEASHQHSSPNEQLKKPVTVSKGTATEPLMLMSVFCQTESFPAERTHGSNIAKMTNTGLPGPATPAYSYAKTNGHCDPEIQTTRELTAGNNVENQVPPREKSVALAQEKPVENGGCPVGIETPVPMPSPLSSSGSSLSPSSTASSSLTSSPCSSPVLTKRLLGSSASSPGYQSSYQVGINQRFHAARHKFQSQADQDQQASGLQSPPSRDLSPTLIDNSAAKQLARNTVTQVLSRFTSQQGPIKPVSPNSSPFGTDYRNLANTANPRGDTSHSPTPGKVSSPLSPLSPGIKSPTIPRAERGNPPPIPPKKPGLTPSPSATTPLTKTHSQAASLTTAEDLASSCSSNTVVANGKDVELLLPTSS
B3: SLMAP (protein, UniProt Q14BN4 1-828)
chain: MPSALAIFTCRPNSHPFQERHVYLDEPIKIGRSVARCRPAQNNATFDCKVLSRNHALVWFDHKTGKFYLQDTKSSNGTFINSQRLSRGSEESPPCEILSGDIIQFGVDVTENTRKVTHGCIVSTIKLFLPDGMEARLRSDVIHAPLPSPVDKVAANTPSMYSQELFQLSQYLQEALHREQMLEQKLATLQRLLAITQEASDTSWQALIDEDRLLSRLEVMGNQLQACSKNQTEDSLRKELIALQEDKHNYETTAKESLRRVLQEKIEVVRKLSEVERSLSNTEDECTHLKEMNERTQEELRELANKYNGAVNEIKDLSDKLKVAEGKQEEIQQKGQAEKKELQHKIDEMEEKEQELQAKIEALQADNDFTNERLTALQVRLEHLQEKTLKECSSLEHLLSKSGGDCTFIHQFIECQKKLIVEGHLTKAVEETKLSKENQTRAKESDFSDTLSPSKEKSSDDTTDAQMDEQDLNEPLAKVSLLKDDLQGAQSEIEAKQEIQHLRKELIEAQELARTSKQKCFELQALLEEERKAYRNQVEESTKQIQVLQAQLQRLHIDTENLREEKDSEITSTRDELLSARDEILLLHQAAAKVASERDTDIASLQEELKKVRAELERWRKAASEYEKEITSLQNSFQLRCQQCEDQQREEATRLQGELEKLRKEWNALETECHSLKRENVLLSSELQRQEKELHNSQKQSLELTSDLSILQMSRKELENQVGSLKEQHLRDSADLKTLLSKAENQAKDVQKEYEKTQTVLSELKLKFEMTEQEKQSITDELKQCKNNLKLLREKGNNKPWPWMPMLAALVAVTAIVLYVPGLARASP

Legend:
Assay in all cases: affinity purification with mass spectrometry; 3xFLAG TRABID constructs transiently expressed in HEK293ET; Triton Lysis Buffer; FLAG M2 magnetic beads 1 h at room temperature; gel slices, LC-MS/MS on an Orbitrap Velos; n = 1 for each plasmid
[1] = biological target: T1, 3xFLAG_TRABID ΔOTU (TRABID 1-339) (human)
[2] = biological target: T2, 3xFLAG_full-length-TRABID^C443S (human)
[3] = biological target: T1, 3xFLAG_TRABID ΔOTU (TRABID 1-339) (human); remark: listed apart in the source
[4] = biological target: T2, 3xFLAG_full-length-TRABID^C443S (human); remark: listed apart in the source

Row | Molecule | binding [1] | binding [2] | binding [3] | binding [4]
1 | CTTNBP2 (from UniProt Q8WZ74 1-1663) | no binding | binds |  | 
2 | FAM40A (from UniProt Q5VSL9 1-837) | no binding | binds |  | 
3 | FAM40B (from UniProt Q9ULQ0 1-834) | no binding | binds |  | 
4 | endogenous NEDD4 (from UniProt P46934 1-1319) (enzyme) | no binding | no binding |  | 
5 | endogenous UBE3C (from UniProt Q15386 1-1083) (enzyme) |  | binds |  | 
6 | B1 |  |  | no binding | binds
7 | B2 |  |  | no binding | binds
8 | B3 |  |  | no binding | binds
